From article PMC8043254
These are yes or no findings as the source states them, for the method shown. Binding calls can cover weak binding; strength is not graded here. Sequences can lack the tags named with a protein.

Molecular target: T1, GST-Eps8L2 (human) (UniProt Q9H6S3)
T1 sequence: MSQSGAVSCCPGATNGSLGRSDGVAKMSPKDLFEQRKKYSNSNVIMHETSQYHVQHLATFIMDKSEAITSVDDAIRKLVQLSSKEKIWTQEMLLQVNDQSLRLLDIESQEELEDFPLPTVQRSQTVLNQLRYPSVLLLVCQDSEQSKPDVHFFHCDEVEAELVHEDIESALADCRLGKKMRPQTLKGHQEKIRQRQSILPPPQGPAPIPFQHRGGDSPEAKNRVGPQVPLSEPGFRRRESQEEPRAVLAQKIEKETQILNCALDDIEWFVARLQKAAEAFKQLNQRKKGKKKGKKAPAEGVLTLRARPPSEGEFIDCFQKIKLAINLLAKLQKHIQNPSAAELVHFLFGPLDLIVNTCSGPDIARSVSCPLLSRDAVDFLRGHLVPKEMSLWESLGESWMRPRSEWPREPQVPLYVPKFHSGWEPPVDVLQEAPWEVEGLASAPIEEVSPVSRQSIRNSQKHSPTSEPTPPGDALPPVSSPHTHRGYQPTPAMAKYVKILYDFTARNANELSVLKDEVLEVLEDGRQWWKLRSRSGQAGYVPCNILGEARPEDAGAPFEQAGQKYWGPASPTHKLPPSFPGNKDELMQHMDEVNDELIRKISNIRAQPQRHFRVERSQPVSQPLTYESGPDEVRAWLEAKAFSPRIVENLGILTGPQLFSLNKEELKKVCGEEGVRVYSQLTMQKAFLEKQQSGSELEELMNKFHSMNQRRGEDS
Assay: pull-down; GST-Eps8L2 (20 ug) on glutathione Sepharose beads, eluted His-Ctdnep1_C-ter in solution; 125 mM Tris-HCl, 150 mM NaCl; 3 h at 4°C; both purified

binding: binds
Substance: His-Ctdnep1_Cter (domain or fragment)
